Experimental data as given in PubChem BioAssay AID1439 (NMMLSC, 2008).
The campaign covered roughly 220,000 compounds. About 770 (0.35%) were called active. The shares of active, inactive and inconclusive entries below differ from those in the screen. No stated cut-off is given here; in the data, active means binding response below about 49% or above about 150%; inconclusive means no clear call, values can overlap the other calls; inactive means in between.

The chains behind the UniProt entries cited, without tags or fusion partners.
UniProt P09471, whole entry, looked up: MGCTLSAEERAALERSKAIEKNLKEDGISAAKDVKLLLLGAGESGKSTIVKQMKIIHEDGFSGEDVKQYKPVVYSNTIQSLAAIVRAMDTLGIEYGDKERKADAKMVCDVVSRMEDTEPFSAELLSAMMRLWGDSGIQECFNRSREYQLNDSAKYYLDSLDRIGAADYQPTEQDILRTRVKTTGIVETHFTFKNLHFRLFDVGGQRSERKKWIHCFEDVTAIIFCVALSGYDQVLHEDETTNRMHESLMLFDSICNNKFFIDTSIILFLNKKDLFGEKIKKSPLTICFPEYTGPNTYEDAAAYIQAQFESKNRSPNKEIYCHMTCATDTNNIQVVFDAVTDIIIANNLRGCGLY

What follows are compounds tested against Guanine nucleotide-binding protein G(o) subunit alpha (Homo sapiens) (UniProt P09471) (assay: RGS7-Galphao binding modulators, primary screen, biochemical, multiplexed bead flow cytometry (AID 1439;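 further: fluorescent Galphao held in activated GDP-AlF4 state binding bead-coupled RGS7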)). Conditions: at 10 µM, actives lie on both sides.
In the case of `COC1CCN(C(=O)CC2C(=O)NCCN2CC2CCCCC2)CC1` (centres undefined), the binding response (% of control) is reported as inactive: 97.5%.
`CC(=O)Nc1ccc(S(=O)(=O)Nc2ccc3c(c2)OCCO3)cc1Cl` was tested, and the binding response (% of control) was inconclusive: 196%.
For `O=C(c1ccccc1)c1ccc2c(c1)OCCOCCOCCO2`, the binding response (% of control) was inconclusive: 238%.
For `O=C(NC(=C(Cl)Cl)S(=O)(=O)c1ccc(Cl)cc1)c1ccccc1`, the binding response (% of control) was inconclusive: 140%.
In the case of `COc1ccc(-c2cc(-c3ccco3)[nH]c(=O)c2C#N)cc1`, the binding response (% of control) is reported as inconclusive: 107%.
For `O=C(Nc1nnc(-c2ccccc2Cl)o1)c1cc2cc([N+](=O)[O-])ccc2s1`, the binding response (% of control) was inactive: 92.1%.
`Cc1c(-c2n[nH]c(=S)n2-c2ccc(C(F)(F)F)cc2)nnn1-c1ccccc1` was tested, and the binding response (% of control) was inactive: 101%.
`S=c1[nH]nc(-c2cccc3ccccc23)n1-c1cccnc1` was tested, and the binding response (% of control) was inconclusive: 103%.
`COC(=O)CCCC1=CC2=CC(=O)C(C)(OC(=O)c3cccs3)C(=O)C2=CN1CCc1c[nH]c2ccccc12` (centres undefined) was tested, and the binding response (% of control) was inconclusive: 58.4%.
`O=C(NCCN1CCc2ccccc2C1)Nc1ccc([N+](=O)[O-])cc1` was tested, and the binding response (% of control) was inconclusive: 98.3%.
In the case of `COC(=O)CCC(=O)NNC(=O)CCCOc1ccc(Cl)cc1Cl`, the binding response (% of control) is reported as inactive: 102%.
In the case of `Cn1c(CO)cnc1SCc1ccc(F)cc1`, the binding response (% of control) is reported as inconclusive: 90.9%.
For `Cc1cccc(C(=O)N/C(=C\c2ccc(C)o2)C(=O)O)c1`, the binding response (% of control) was inconclusive: 126%.
`N#CC1=C(N)Oc2c(ccc3cccnc23)C1c1ccncc1` (centres undefined) was tested, and the binding response (% of control) was inconclusive: 94%.
`CCOc1c(Cl)cc(C(=O)Nc2cccc(C(=O)O)c2)cc1Cl` was tested, and the binding response (% of control) was inactive: 102%.
For `O=C(O)COc1ccc(-c2nccc(-c3ccccn3)n2)cc1`, the binding response (% of control) was inactive: 92.4%.
`O=C(O)CCCCCNCc1c(Cl)cccc1Cl` was tested, and the binding response (% of control) was inconclusive: 111%.
`O=C(O)CSc1nnc(-c2cccc(S(=O)(=O)N3CCCCC3)c2)o1` was tested, and the binding response (% of control) was inconclusive: 96.7%.
With `CC1(C)NC(=O)N(CC(=O)OCC(=O)Nc2cc(S(=O)(=O)N3CCCCCC3)ccc2Cl)C1=O` the binding response (% of control) was inactive: 102%.
For `Cc1cc(OCC(=O)NCc2ccncc2)ccc1Cl`, the binding response (% of control) was inactive: 99.7%.
In the case of `CCc1ccccc1N(C)S(=O)(=O)c1ccc2[nH]cc(C(=O)O)c(=O)c2c1`, the binding response (% of control) is reported as inconclusive: 104%.
In the case of `Oc1[nH]c(=S)sc1C=C1N=c2ccccc2=N1`, the binding response (% of control) is reported as inconclusive: 76.5%.
For `CCc1ccc2[nH]c(C(=O)Nc3ccc4c(c3)OCO4)cc2c1`, the binding response (% of control) was inconclusive: 79.2%.
In the case of `FC(F)Oc1ccc(-c2csc(NNC3=NCCCCC3)n2)cc1`, the binding response (% of control) is reported as inconclusive: 99.5%.
For `CC(C)NC(=O)CC1C(=O)N(Cc2ccccc2)C(C)c2nc3ccccc3n21` (centres undefined), the binding response (% of control) was inactive: 102%.
In the case of `C(=N\c1nc2ccccc2n1CCN1CCCCC1)/c1ccc2c(c1)OCO2`, the binding response (% of control) is reported as inactive: 96.7%.
With `Cc1nn(Cc2ccccc2)c(C)c1/C=N/NC(=O)c1ccncc1` the binding response (% of control) was inconclusive: 174%.
With `OCCC1CN(Cc2nc3c(s2)CCCC3)CCN1Cc1ccccc1` (centres undefined) the binding response (% of control) was inconclusive: 72.1%.
In the case of `CCCNC(=S)Nc1ccc(F)cc1F`, the binding response (% of control) is reported as inconclusive: 111%.
With `CCOC(=O)c1ccc(Oc2cc(C)nc(Cl)n2)cc1` the binding response (% of control) was inconclusive: 67.2%.
`CN(C(=O)COC(=O)c1cn(-c2ccccc2)nc1-c1ccccc1)C1CCS(=O)(=O)C1` (centres undefined) was tested, and the binding response (% of control) was inconclusive: 100%.
With `CC1(C)CC(NC(=S)Nc2ccc([N+](=O)[O-])cc2)CC(C)(C)N1` the binding response (% of control) was inactive: 97.4%.
For `CCOC(=O)c1ccc(N2C(=O)C(C)=C(C)C2=O)cc1`, the binding response (% of control) was inactive: 102%.
`OCCC1CN(Cc2ccc(Oc3ncccn3)cc2)CCN1C1CCCCC1` (centres undefined) was tested, and the binding response (% of control) was inconclusive: -412%.
`COc1ccccc1NC(C)=O` was tested, and the binding response (% of control) was inactive: 75.6%.
In the case of `O=c1[nH]cc(O)c(=O)[nH]1`, the binding response (% of control) is reported as inconclusive: 107%.
With `O=C(O)c1cccc(N2C(=O)C3C4C=CC(C4=C(c4ccccc4)c4ccccc4)C3C2=O)c1` (centres undefined) the binding response (% of control) was inactive: 94.1%.
With `O=C(CCC(=O)Nc1ccc(Cl)cc1Cl)NNC(=O)Nc1ccccc1` the binding response (% of control) was inconclusive: 98.1%.
In the case of `O=C(Nc1ccc(Cl)cc1)Nc1ccc(C(=O)N2CCOCC2)cc1`, the binding response (% of control) is reported as inconclusive: 94.3%.
With `C[n+]1nc(Nc2ccccc2)sc1-c1ccc(C(=O)O)cc1` the binding response (% of control) was inconclusive: 90.5%.
`c1ccc2c3c(c(CN4CCCCC4)cc2c1)COC3` was tested, and the binding response (% of control) was inconclusive: 112%.
`CCOc1ccc(Oc2ccc(NC(=O)[C@@H](NC(N)=O)[C@@H](C)CC)cc2)cc1` was tested, and the binding response (% of control) was inconclusive: 98%.
For `O=C(NNC(=S)Nc1ccc(F)cc1)[C@H]1C[C@@H]1c1ccccc1`, the binding response (% of control) was inconclusive: 67%.
In the case of `CCSc1ncnc2c1sc1nc3c(cc12)COC(C)(C)C3`, the binding response (% of control) is reported as inactive: 98.5%.
`Cc1cc(C(=O)N2CCN(c3ncccc3C#N)CC2)no1` was tested, and the binding response (% of control) was inconclusive: 91.8%.
`O=C(NNS(=O)(=O)c1ccc2ccccc2c1)NC1CCCCC1` was tested, and the binding response (% of control) was inactive: 96.8%.
`COC(=O)/C(=C\Nc1ccc(Cl)cc1Cl)NC(=O)c1ccc(OC)cc1` was tested, and the binding response (% of control) was inconclusive: 109%.
In the case of `CC(=O)NC(N1CCCCC1)C(F)(F)C(F)(F)C(F)(F)C(F)F` (centres undefined), the binding response (% of control) is reported as inactive: 101%.
In the case of `Cc1cccc(C(=O)N/N=C2/SCC(=O)N2Cc2ccccc2)c1`, the binding response (% of control) is reported as inactive: 94.2%.
For `Cc1ccc(S(=O)(=O)Nc2nc3cc(C)c(C)cc3[nH]2)cc1`, the binding response (% of control) was inactive: 102%.
For `Cc1nnc(SC(C)C#N)n1-c1ccccc1` (centres undefined), the binding response (% of control) was inconclusive: 157%.
`O=C(Nc1ccc(S(=O)(=O)N2CCOCC2)cc1)c1ccc(Cl)cc1` was tested, and the binding response (% of control) was inconclusive: 93%.
With `O=C1NC(=O)C(CC(=O)N(c2ccccc2)C2(C(=O)NC3CCCC3)CCCCC2)N1` (centres undefined) the binding response (% of control) was inactive: 111%.
With `CC(=O)c1ccc(NC(=O)COc2ccc3c(c2)OCO3)cc1` the binding response (% of control) was inactive: 96.8%.
In the case of `COC(=O)C(NC(=O)C(C)NC(=O)OCc1ccccc1)C(C)C` (centres undefined), the binding response (% of control) is reported as inconclusive: 134%.
For `O=C(O)c1cccnc1SC1CC(=O)N(c2ccc(OC(F)F)cc2)C1=O` (centres undefined), the binding response (% of control) was inconclusive: 41%.
`CCc1c(C(C)=O)oc2ccc3c(C)cc(=O)oc3c12` was tested, and the binding response (% of control) was inconclusive: 93.4%.
For `Cc1cccc(Cl)c1NC(=S)NCCc1ccccn1`, the binding response (% of control) was inconclusive: 155%.
`CCOC(=O)N1CCN(C(=O)CCc2nc3sc4c(c3c(=O)[nH]2)CCCC4)CC1` was tested, and the binding response (% of control) was inconclusive: 98.4%.
